According to patent US20050003000A1, “Method for the formation of ibuprofen crystals” (priority 2001, published 2005):

Test: Powder dissolution / in vitro release rate of the pure active compound, phosphate buffer pH 7.4 USP XXIV, paddle process 100 rpm
Assay type: physicochemical
Procedure: The measurements of the release rate was carried out according to USP XXIV.
• 1. 80 g of ibuprofen are dissolved in 100 ml of isopropanol at 40° C. Precipitation is then carried out by addition of ice water (450 ml/stirrer speed 50 rpm) during the course of 70 min. During this process cooling to 10° C. takes place. The crystals are recovered by filtration and dried in vacuo. […] 3.2 g of sucrose monolaurate are added as an additive. Precipitation is then carried out by addition of ice water (450 ml/stirrer speed 200 rpm) during the course of 70 min. During this process cooling to 10° C. takes place. The crystals are recovered by filtration, washed with ice water (3×50 ml) and dried in vacuo. […] 8 g of Tween®80 are added as an additive. Precipitation is then carried out by addition of ice water (450 ml/stirrer speed 200 rpm) during the course of 70 min. During this process cooling to 10° C. takes place. The crystals are recovered by filtration, washed with ice water (3×50 ml) and dried in vacuo. […] 80 g of ibuprofen are dissolved in 100 ml of isopropanol at 40° C. 3 g of sucrose monolaurate are added as an additive. Precipitation is then carried out by addition of ice water (450 ml/stirrer speed 200 rpm) during the course of 70 min; during this process, cooling to 10° C. takes place; the crystals are recovered by filtration, washed with ice water (3×150 ml) and dried in vacuo.

COc1ccc2cc([C@H](C)C(=O)O)ccc2c1 [naproxen commercial article, naproxen, reference compound]
Time after which a 100% release / dissolution is seen: > 30 min | Release / dissolution within (after) 2 minutes (2 minutes): 35%
